# Data from the supplement of paper PMC8728848.
# This is one part of the list.
# B1: Loc1 (Escherichia coli) (protein)
# chain: APCALTNVGEQRGTYILKPLSMKGNLTAEKIENTGNIIECTDLQETTNAIKVHFLTQNALKFKVGSRHYIINFPFEYDGKKIELPGKSSYNLEEMLSAINFTIPYSIASVSDSSNTADIFPGTPFPLLFEIEVSSCTGNNTNCNSVRFNYNLNTILQVNLMTHHHHHH
# How the values were obtained:
# Assay in all cases: glycan array binding signal (z-score within array); higher = stronger binding
# Conditions in all cases: glycan notation: IUPAC condensed, linker removed
# [1] = target: Fuc(a1-2)Gal(b1-4)[Fuc(a1-3)]GlcNAc(b1-2)Man(a1-3)[Fuc(a1-2)Gal(b1-4)[Fuc(a1-3)]GlcNAc(b1-2)Man(a1-6)]Man(b1-4)GlcNAc(b1-4)[Fuc(a1-6)]GlcNAc
# Outline: (§1)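 Arrays were curated from the Consortium for Functional Glycomics database, 3228 in total, and kept only where the protein sequence was available. Binding is expressed as a within-array Z-score. This score was averaged across arrays of the same protein sequence at different concentrations or buffers and across linkers, and negative values can be read as non-binding.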
# [2] = target: Fuc(a1-2)Gal(b1-4)[Fuc(a1-3)]GlcNAc(b1-2)[Fuc(a1-2)Gal(b1-4)[Fuc(a1-3)]GlcNAc(b1-4)]Man(a1-3)[Fuc(a1-2)Gal(b1-4)[Fuc(a1-3)]GlcNAc(b1-2)Man(a1-6)]Man(b1-4)GlcNAc(b1-4)GlcNAc
# Outline: as §1
# [3] = target: Fuc(a1-2)Gal(b1-4)[Fuc(a1-3)]GlcNAc(b1-3)Gal(b1-4)[Fuc(a1-3)]GlcNAc
# Outline: as §1
# [4] = target: Fuc(a1-2)Gal(b1-4)[Fuc(a1-3)]GlcNAc(b1-3)Gal(b1-4)[Fuc(a1-3)]GlcNAc(b1-3)Gal(b1-4)[Fuc(a1-3)]GlcNAc
# Outline: as §1
# [5] = target: Fuc(a1-2)Gal(b1-4)[Fuc(a1-3)]GlcNAc(b1-3)GalNAc
# Outline: as §1
# [6] = target: Fuc(a1-2)Gal(b1-4)[Fuc(a1-3)]GlcNAc(b1-3)[Neu5Ac(a2-6)Gal(b1-4)GlcNAc(b1-6)]Gal(b1-4)Glc
# Outline: as §1
# [7] = target: Fuc(a1-2)Gal3S(b1-4)GlcNAc
# Outline: as §1
# [8] = target: Fuc(a1-2)Gal6S(b1-3)GlcNAc
# Outline: as §1
# [9] = target: Fuc(a1-2)Gal6S(b1-3)GlcNAc6S
# Outline: as §1
# Fuc(a1-2)Gal6S(b1-4)Glc = target: Fuc(a1-2)Gal6S(b1-4)Glc
# Outline: as §1
# [10] = target: Fuc(a1-2)Gal6S(b1-4)Glc6S
# Outline: as §1
# Fuc(a1-2)[Gal(a1-3)]Gal = target: Fuc(a1-2)[Gal(a1-3)]Gal
# Outline: as §1
# [11] = target: Fuc(a1-2)[Gal(a1-3)]Gal(b1-3)GalNAc
# Outline: as §1
# [12] = target: Fuc(a1-2)[Gal(a1-3)]Gal(b1-3)GalNAc(b1-3)Gal(a1-4)Gal(b1-4)Glc
# Outline: as §1
# [13] = target: Fuc(a1-2)[Gal(a1-3)]Gal(b1-3)GlcNAc
# Outline: as §1
# [14] = target: Fuc(a1-2)[Gal(a1-3)]Gal(b1-3)GlcNAc(b1-2)Man(a1-3)[Fuc(a1-2)[Gal(a1-3)]Gal(b1-3)GlcNAc(b1-2)Man(a1-6)]Man(b1-4)GlcNAc(b1-4)GlcNAc
# Outline: as §1
# [15] = target: Fuc(a1-2)[Gal(a1-3)]Gal(b1-3)GlcNAc(b1-2)Man(a1-3)[Fuc(a1-2)[Gal(a1-3)]Gal(b1-3)GlcNAc(b1-2)Man(a1-6)]Man(b1-4)GlcNAc(b1-4)[Fuc(a1-6)]GlcNAc
# Outline: as §1
# [16] = target: Fuc(a1-2)[Gal(a1-3)]Gal(b1-3)GlcNAc(b1-3)GalNAc
# Outline: as §1
# [17] = target: Fuc(a1-2)[Gal(a1-3)]Gal(b1-3)GlcNAc(b1-6)GalNAc
# Outline: as §1
# [18] = target: Fuc(a1-2)[Gal(a1-3)]Gal(b1-4)Glc
# Outline: as §1
# [19] = target: Fuc(a1-2)[Gal(a1-3)]Gal(b1-4)GlcNAc
# Outline: as §1
# [20] = target: Fuc(a1-2)[Gal(a1-3)]Gal(b1-4)GlcNAc(b1-2)Man
# Outline: as §1
# [21] = target: Fuc(a1-2)[Gal(a1-3)]Gal(b1-4)GlcNAc(b1-2)Man(a1-3)[Fuc(a1-2)[Gal(a1-3)]Gal(b1-4)GlcNAc(b1-2)Man(a1-6)]Man(b1-4)GlcNAc(b1-4)GlcNAc
# Outline: as §1
# [22] = target: Fuc(a1-2)[Gal(a1-3)]Gal(b1-4)GlcNAc(b1-2)Man(a1-3)[Fuc(a1-2)[Gal(a1-3)]Gal(b1-4)GlcNAc(b1-2)Man(a1-6)]Man(b1-4)GlcNAc(b1-4)[Fuc(a1-6)]GlcNAc
# Outline: as §1
# [23] = target: Fuc(a1-2)[Gal(a1-3)]Gal(b1-4)GlcNAc(b1-3)GalNAc
# Outline: as §1
# [24] = target: Fuc(a1-2)[Gal(a1-3)]Gal(b1-4)GlcNAc(b1-3)[Fuc(a1-2)[Gal(a1-3)]Gal(b1-4)GlcNAc(b1-6)]GalNAc
# Outline: as §1
# [25] = target: Fuc(a1-2)[Gal(a1-3)]Gal(b1-4)GlcNAc(b1-6)GalNAc
# Outline: as §1
# [26] = target: Fuc(a1-2)[Gal(a1-3)]Gal(b1-4)[Fuc(a1-3)]Glc
# Outline: as §1
# [27] = target: Fuc(a1-2)[Gal(a1-3)]Gal(b1-4)[Fuc(a1-3)]GlcNAc
# Outline: as §1
# [28] = target: Fuc(a1-2)[Gal(a1-3)]Gal(b1-4)[Fuc(a1-3)]GlcNAc(b1-3)GalNAc
# Outline: as §1
# [29] = target: Fuc(a1-2)[Gal(a1-4)]Gal(b1-4)GlcNAc
# Outline: as §1
# [30] = target: Fuc(a1-2)[GalNAc(a1-3)]Gal
# Outline: as §1
# [31] = target: Fuc(a1-2)[GalNAc(a1-3)]Gal(b1-3)GalNAc(a1-3)[Fuc(a1-2)]Gal(b1-4)GlcNAc
# Outline: as §1
# [32] = target: Fuc(a1-2)[GalNAc(a1-3)]Gal(b1-3)GalNAc(b1-3)Gal(a1-4)Gal(b1-4)Glc
# Outline: as §1
# [33] = target: Fuc(a1-2)[GalNAc(a1-3)]Gal(b1-3)GlcNAc
# Outline: as §1
# [34] = target: Fuc(a1-2)[GalNAc(a1-3)]Gal(b1-3)GlcNAc(b1-2)Man(a1-3)[Fuc(a1-2)[GalNAc(a1-3)]Gal(b1-3)GlcNAc(b1-2)Man(a1-6)]Man(b1-4)GlcNAc(b1-4)GlcNAc
# Outline: as §1
# [35] = target: Fuc(a1-2)[GalNAc(a1-3)]Gal(b1-3)GlcNAc(b1-2)Man(a1-3)[Fuc(a1-2)[GalNAc(a1-3)]Gal(b1-3)GlcNAc(b1-2)Man(a1-6)]Man(b1-4)GlcNAc(b1-4)[Fuc(a1-6)]GlcNAc
# Outline: as §1
# [36] = target: Fuc(a1-2)[GalNAc(a1-3)]Gal(b1-3)GlcNAc(b1-3)GalNAc
# Outline: as §1
binder,measurement,setting,value
B1,glycan array binding signal (z-score),[1],-0.112
same,glycan array binding signal (z-score),[2],0.799
same,glycan array binding signal (z-score),[3],-0.064
same,glycan array binding signal (z-score),[4],-0.457
same,glycan array binding signal (z-score),[5],0.624
same,glycan array binding signal (z-score),[6],-0.511
same,glycan array binding signal (z-score),[7],-0.245
same,glycan array binding signal (z-score),[8],-0.285
same,glycan array binding signal (z-score),[9],-0.314
same,glycan array binding signal (z-score),Fuc(a1-2)Gal6S(b1-4)Glc,0.046
same,glycan array binding signal (z-score),[10],-0.953
same,glycan array binding signal (z-score),Fuc(a1-2)[Gal(a1-3)]Gal,-0.14
same,glycan array binding signal (z-score),[11],0.04
same,glycan array binding signal (z-score),[12],0.29
same,glycan array binding signal (z-score),[13],-0.111
same,glycan array binding signal (z-score),[14],-0.663
same,glycan array binding signal (z-score),[15],-0.489
same,glycan array binding signal (z-score),[16],-0.405
same,glycan array binding signal (z-score),[17],1.41
same,glycan array binding signal (z-score),[18],-0.253
same,glycan array binding signal (z-score),[19],2
same,glycan array binding signal (z-score),[20],-0.561
same,glycan array binding signal (z-score),[21],1.97
same,glycan array binding signal (z-score),[22],-0.644
same,glycan array binding signal (z-score),[23],-0.146
same,glycan array binding signal (z-score),[24],1.05
same,glycan array binding signal (z-score),[25],-0.577
same,glycan array binding signal (z-score),[26],0.22
same,glycan array binding signal (z-score),[27],-0.548
same,glycan array binding signal (z-score),[28],1.01
same,glycan array binding signal (z-score),[29],0.397
same,glycan array binding signal (z-score),[30],-0.147
same,glycan array binding signal (z-score),[31],-0.782
same,glycan array binding signal (z-score),[32],-0.019
same,glycan array binding signal (z-score),[33],-0.651
same,glycan array binding signal (z-score),[34],-0.067
same,glycan array binding signal (z-score),[35],0.796
same,glycan array binding signal (z-score),[36],0.693

# Given tab-delimited: part of the list above.
binder	measurement	setting	value
B1	glycan array binding signal (z-score)	[11]	0.04
same	glycan array binding signal (z-score)	[12]	0.29
